Literature values, collected in patent US7589108B2, “1-Heterocyclylalkyl-3-sulfonylindole or -indazole derivatives as 5-hydroxytryptamine-6 ligands” (Wyeth, priority 2002, dated 2009).
For at least one compound, name, drawing or mass did not settle the structure.

Tested on: 5-HT6 receptor subtype
Conditions: early studies, background statement; cited from earlier work

SMILES: CN1CCN(C2=Nc3cc(Cl)ccc3Nc3ccccc32)CC1 [Clozapine]
- affinity for the 5-HT6 receptor subtype: high affinity
